Results as given in US20250042987A1.
These are yes or no findings as the source states them, for the method shown. Some results given as binding are weak or reduced against the parent protein; the word gives no strength.

Chains of the proteins cited; added tags and fusions are not shown. Residues count along the entry.
UniProt Q969D9, residues 29-159: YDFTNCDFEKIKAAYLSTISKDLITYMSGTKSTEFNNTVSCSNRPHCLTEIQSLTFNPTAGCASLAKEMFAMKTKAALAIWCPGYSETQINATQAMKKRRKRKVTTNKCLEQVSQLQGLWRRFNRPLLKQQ

target: human TSLP (thymic stromal lymphopoietin), made in-house (human) (UniProt Q969D9); assay: ELISA, TSLP coated

| binding | Binder |
| --- | --- |
| binds | murine anti-TSLP monoclonal antibody MA-II (mouse IgG1 / mouse Ck) (antibody, V domains shown) VH: QVKLQQSGAELVKPGASVKMSCKASGYTFTTYWMHWVKQRPGQGLEWIGVIDPSDSYITYNQKFKGKATLTVDTSSSTAYMQLSSLTSEDSAVYYCTRSLDGYFDYWGQGTLVTVSA VL: DIVLTQSPASLSASVGETVTITCRASENIYSYLAWYQQKQGKSPQLLVYNAKTLAEGVPSRFSGSGSGTQFSLKINSLQPEDFGSYYCQHHYGTPWTFGGGTKLEIKA |
| binds | murine anti-TSLP monoclonal antibody MA-III (mouse IgG1 / mouse Ck) (antibody, V domains shown) VH: QVQLQQPGAELVKPGASVKMSCKASGYTFTSYWMHWVKQRPGQGLEWIGVIDPSDSDTTYNQKFKGKATLTVDTSSSTVYMQLSSLTSEDSAVYYCTRSLDGYFDHWGQGTLVTVSA VL: DIVMTQSPASLSASVGETVTITCRASGNIHNYLAWYQQKQGKSPQLLVYNAKTLADGVPSRFSGSGSGTQYSLKINSLQPEDFGSYYCQHFWSTPWTFGGGTKLEIKA |
| binds | murine anti-TSLP monoclonal antibody MA-IV (mouse IgG1 / mouse Ck) (antibody, V domains shown) VH: QVKLEQSGAELVKPGASVKMSCKASGYTFTSYWMHWVKQRPGQGLEWIGVIDPSDSDTTYNQKFKGKATLTVDTSSSTAYMQLSSLTSEDSAVYYCTRSLDGYFDHWGQGTLVTVSA VL: DIVITQTPASLSASVGETVTITCRASGNIHNYLAWYQQKQGKSPQLLVYNTKTLADGVPSRFSGSGSGTQYSLKINSLQPEDFGSYYCQHFWSTPYTFGGGTKLEIKA |
